# Measurements taken from PubChem BioAssay AID1439 (NMMLSC, 2008).
# Chains of the proteins cited; added tags and fusions are not shown.
# UniProt P09471, whole entry, looked up: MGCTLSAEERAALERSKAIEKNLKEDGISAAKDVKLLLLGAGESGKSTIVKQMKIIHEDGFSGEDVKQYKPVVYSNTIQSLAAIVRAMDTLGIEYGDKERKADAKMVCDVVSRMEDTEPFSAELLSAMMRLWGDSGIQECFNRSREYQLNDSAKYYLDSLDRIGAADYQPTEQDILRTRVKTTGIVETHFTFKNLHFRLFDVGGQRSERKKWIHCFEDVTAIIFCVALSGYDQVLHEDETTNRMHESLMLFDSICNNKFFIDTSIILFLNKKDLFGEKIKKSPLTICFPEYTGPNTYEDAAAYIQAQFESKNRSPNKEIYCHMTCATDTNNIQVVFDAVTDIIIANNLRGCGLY
# Hit rate of the full screen: of about 220,000 compounds, about 770 (0.35%) were called active. The inconclusive results got no clear call from the source; some entries with a clear call stand among them for comparison. Rule as the data show it: active = binding response below about 49% or above about 150%; inconclusive = no clear call, values can overlap the other calls; inactive = in between.
# Target: Guanine nucleotide-binding protein G(o) subunit alpha (Homo sapiens) (UniProt P09471)
# Test: RGS7-Galphao binding modulators, primary screen, biochemical, multiplexed bead flow cytometry (AID 1439);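 also: fluorescent Galphao held in activated GDP-AlF4 state binding bead-coupled RGS7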
# Conditions: at 10 µM, actives lie on both sides
row,SMILES,binding response (% of control)
1,CC(Cc1cccnc1)NC(=O)c1ccccc1OC1CCN(S(C)(=O)=O)CC1 (stereo not given),inactive: 109%
2,COCCNc1nc2nonc2nc1N(C)Cc1cccc2cnccc12,inactive: 97.9%
3,CCOC(=O)C(=NC1CCS(=O)(=O)C1)NNc1ccccc1Cl (stereo not given),inconclusive: 117%
4,CN(CC(=O)N1CCN(c2ccccn2)CC1)S(=O)(=O)c1ccccc1,inactive: 106%
5,COc1ccc(NS(=O)(=O)c2cc(Cl)ccc2Cl)cc1S(=O)(=O)N1CCCCC1,inconclusive: 96.2%
6,CCN1C(=O)C2(C(C(=O)c3ccc(C)o3)=C(O)C(=O)N2CCCN(C)C)c2ccccc21 (stereo not given),inconclusive: 83.5%
7,Cc1cccc(OCC(=O)NCC(=O)N/N=C/c2c(C)[nH]c3ccccc23)c1,inconclusive: 114%
8,CC(=O)c1ccc(N2CCN(c3ccc(S(=O)(=O)NCCN(C)C)cc3[N+](=O)[O-])CC2)cc1,inconclusive: 101%
9,O=C(/C=C/c1cn(CC(O)CN2CCOCC2)c2ccccc12)c1cccs1 (stereo not given),inconclusive: 139%
10,Oc1ccc2n[nH]nc2c1,inactive: 98.1%
11,Cc1ccccc1/C=N/n1c(-c2cc(-c3ccccc3)n[nH]2)n[nH]c1=S,inconclusive: -91.1%
12,O=[N+]([O-])c1ccccc1N/N=C/c1cccc(O)c1O,inconclusive: 88.7%
13,Cc1ccc(Cl)cc1NC(=S)N(CCCN1CCOCC1)Cc1ccco1,inconclusive: 106%
14,CCOC(=O)C(=O)CC(=O)c1ccc2c(c1)OCCO2,inactive: 104%
15,COc1ccccc1-c1nc(-c2ccccc2)nc(N2CCN(C)CC2)c1C#N,inconclusive: 93%
16,CC1CN(S(=O)(=O)c2ccc(C(=O)Nc3nnc(-c4ccccn4)o3)cc2)CC(C)O1 (stereo not given),active: -18.3%
17,COn1c(C)c(C)c2c3nonc3ccc21,inconclusive: 129%
18,Cc1ccc(NC(=O)C2CCC(CNc3c(N4CCC(C)CC4)c(=O)c3=O)CC2)cc1F (stereo not given),inconclusive: 85.4%
19,S=c1[nH]c(-c2ccccc2)cs1,inconclusive: 84.4%
20,Cc1nn(C)c(C)c1NC(=O)CC12CC3CC(CC(C3)C1)C2,inconclusive: 117%
21,COc1ccccc1OCCn1cc(/C=N/NC(=O)c2ccncc2)c2ccccc21,inconclusive: 124%
22,O=C(Nc1ccccc1N(C(=O)c1ccco1)S(=O)(=O)c1cccs1)c1ccco1,inactive: 99.4%
23,CCCOC(=O)c1c(NC(=O)C2CCCO2)sc(C(=O)OC)c1C (stereo not given),inactive: 114%

row,SMILES,binding response (% of control)
1,CN(CC(=O)OCC(N)=O)S(=O)(=O)c1ccc(Cl)cc1,inconclusive: 124%
2,c1cc(-c2nsc(-c3ccncc3)n2)ccn1,inconclusive: 98.2%
3,O=C(Cc1ccc(Cl)cc1)Nc1ccc2oc(=O)ccc2c1,inconclusive: 81.6%
4,O=C(Nc1cccc([N+](=O)[O-])c1)ONC1=NCCCCC1,inconclusive: 75.9%
5,CCOc1ccc2nc(NC(=O)c3ccoc3C)sc2c1,inactive: 116%
6,C1=Nc2c(Nc3ccccc3)ncnc2Oc2ccccc21,inactive: 101%
7,O=C(c1ccc(SCc2ccco2)c([N+](=O)[O-])c1)N1CCOCC1,inconclusive: 98.2%
8,CC(NC(=O)/C(C#N)=C/c1ccco1)c1ccccc1 (stereo not given),inconclusive: 153%
9,O=C(O)c1ccc2c(c1)C1C=CCC1C(c1ccncc1)N2 (stereo not given),inconclusive: 76.2%
10,CN1CCN(c2ccc(-c3ccc4ccccc4n3)cc2)CC1,inconclusive: 89.6%
11,COC(=O)c1ccc(N2CCN(C(=O)c3ccccc3)CC2)c(NC(C)=O)c1,inconclusive: 123%
12,CCC(C)NC(=O)CCC(=O)NNc1nc2ccccc2c2nc(C)nn12 (stereo not given),inactive: 95.9%
13,COC(=O)CN=Cc1c(O)n(-c2ccc(Cl)cn2)c(=O)c2ccccc12,inconclusive: 99.2%
14,O=C(O)CC(Sc1n[nH]c(=S)s1)C(=O)O (stereo not given),inconclusive: 193%
15,Cc1ccc2nc(NC(=O)c3ccc(OCC4CCCO4)cc3)sc2c1 (stereo not given),inactive: 90.8%
16,CC1(NC(=O)C2CCCCC2)CCS(=O)(=O)C1 (stereo not given),inconclusive: 93.2%
17,O=C(CC(C(=O)O)c1ccccc1)c1cccs1 (stereo not given),inconclusive: 91.2%
18,CC(C)(C)OC(=O)NCCc1nnc(SCC(=O)Nc2ccc(Br)cc2)o1,inconclusive: 98.3%
19,COc1cc(C(=O)Nc2ccc(S(=O)(=O)Nc3nccc(C)n3)cc2)c([N+](=O)[O-])cc1OC,inconclusive: 127%
20,O=C(O)C(Cc1c[nH]c2ccccc12)NS(=O)(=O)c1ccc(Cl)cc1 (stereo not given),inconclusive: 126%
21,FC(F)(F)c1cccc(OCC2CNC(=S)O2)c1 (stereo not given),inconclusive: 120%
22,O=C(NCCc1ccccc1)C(=S)N1CCCCC1,inconclusive: 98.7%
23,COC1=CC(=O)CC(C)C12Oc1cc(OC)cc(OC)c1C2=O (stereo not given),inconclusive: 117%

row,SMILES,binding response (% of control)
1,COc1cc2c(cc1OC)CN(C(=S)NC(=O)c1ccccc1)CC2,inactive: 85%
2,COc1cc2c(cc1OC)C(NC(=O)C(F)(F)F)C/C2=N\O (stereo not given),inconclusive: 87.8%
3,Cn1nnnc1SCC(=O)Nc1ccc(S(=O)(=O)N2CCOCC2)cc1,inconclusive: 129%
4,CCOC(=O)c1cnc2c(F)ccc(F)c2c1Sc1ccccc1,inconclusive: 75%
5,CCOC(=O)C(C(=O)OCC)c1cc(Br)c2noc3c2c1C(=O)c1ccccc1-3,inactive: 75.6%
6,O=C(O)CC(SCC(=O)Nc1ccc(S(=O)(=O)N2CCCC2)cc1)C(=O)O (stereo not given),inconclusive: 109%
7,COc1ccc(/C=C2/SC(=S)N(CCCC(=O)Nc3ccc(O)cc3)C2=O)cc1,inconclusive: 68.3%
8,CCOC(=O)N1CCN(c2nc3ccc(C(=O)c4ccccc4)cc3n3cnnc23)CC1,inconclusive: 77.6%
9,c1ccc(CSc2nc3ncncc3[nH]2)cc1,inconclusive: 80.8%
10,Cc1nn(-c2ccccc2)nc1C(N)=O,inconclusive: 101%
11,Nc1cc(=O)nc(SCC(=O)Nc2ccccc2Cl)n1-c1ccccc1,inactive: 96.2%
12,CN1C2=CC=CC=CC2=[N+](C)C12C=CC(=[N+]([O-])[O-])C=C2[N+](=O)[O-] (stereo not given),inconclusive: 68%
13,CC(C)CCn1c(O)c(N=Nc2ccccn2)c2ccccc21,inactive: 101%
14,Cc1cccn2c(=O)c3cc(S(=O)(=O)c4ccccc4)c(=N)n(CC4CCCO4)c3nc12 (stereo not given),inconclusive: 112%
15,COc1cc(O)c(C(CCN2CCCC2)c2ccc(N(C)C)cc2)c(OC)c1 (stereo not given),inconclusive: 104%
16,O=C(O)/C(=C\c1cccc([N+](=O)[O-])c1)c1ccc(S(=O)(=O)N2CCCCC2)s1,inconclusive: 72.4%
17,O=C(CSc1cccc(C(F)(F)F)c1)N1CCN(S(=O)(=O)c2ccccc2)CC1,inactive: 89.9%
18,CC(=O)c1ccc(N2C(=O)[C@@H]3[C@H](C2=O)[C@H]2c4ccccc4C=NN2[C@@H]3C(C)=O)cc1,inconclusive: 97.2%
19,O=C(Nc1ccc(C(=O)N2CCCC2)cc1)c1ccccc1[N+](=O)[O-],inconclusive: 112%
20,CCCC[C@@H]1CNC(=O)C(=O)N1CCCc1cc(OC)c(OC)c(OC)c1,inconclusive: 123%
21,N/N=C1\CCCc2c1[nH]c1ccc([N+](=O)[O-])cc21,inconclusive: 100%
22,CC(=O)c1ccn(S(=O)(=O)c2ccc(Cl)cc2)c1,inconclusive: 89.8%
23,CN(C)C(=O)NC(Nc1ccc(Cl)cc1Cl)C(Cl)(Cl)Cl (stereo not given),inactive: 66.8%

row,SMILES,binding response (% of control)
1,C#CCSc1n[nH]c(-c2ccco2)n1,inconclusive: 102%
2,CCOC(=O)c1ccc(NCn2c(=O)oc3ccccc32)cc1,inactive: 91.7%
3,CNC(=O)CSc1nnc(-c2ccccc2F)n1CCc1ccccc1,inconclusive: 231%
4,Cc1ccc(-n2c(SCC(=O)Nc3nccs3)nc3c(c2=O)SCC3)cc1,inactive: 97.4%
5,COC(=O)c1ccc(Cl)cc1N(Cc1c(F)cccc1Cl)S(C)(=O)=O,inconclusive: 91.2%
6,O=Cc1c[nH]c2ncccc12,inconclusive: 99.8%
7,CCCCCc1cccnc1,inconclusive: 99%
8,CCN1CCN(c2nc(Nc3cccc(F)c3)nc(N)c2[N+](=O)[O-])CC1,inconclusive: 81.6%
9,Cc1cccc(NC(=O)NNC(=O)COc2ccc(Cl)cc2)c1,inconclusive: 100%
10,CSCC[C@H](NC(=O)C1=NN(c2c(F)c(F)cc(F)c2F)C(=O)CC1)c1nc2ccccc2[nH]1,inconclusive: 123%
11,COc1cccc(Cn2nc(C(=O)O)c3ccccc3c2=O)c1,inconclusive: 81.5%
12,Cc1ccc(S(=O)(=O)N2CCN(C(=O)COC(=O)c3c(C)noc3C)CC2)c(C)c1,inconclusive: 69%
13,COc1ccc(-c2c(NC(=O)c3ccco3)n(-c3ccc(C)cc3)nc(C)c2=O)cc1,inconclusive: 81.3%
14,CC[C@H](C)[C@H](NC(N)=O)C(=O)NCCc1ccc(OC)cc1,inconclusive: 173%
15,Cc1nnc(SCC(=O)N(C)c2c(N)n(Cc3ccccc3)c(=O)[nH]c2=O)n1Cc1ccccc1,inconclusive: 83.5%
16,COc1ccc(-n2c(O)c(C=Nc3ccccc3)c3ccccc3c2=O)cc1OC,inconclusive: 77%
17,O=C(Cn1nnc2ccccc2c1=O)N[C@@H](Cc1ccccc1)C(=O)O,inconclusive: 39.2%
18,C=CCn1c(-c2sc3nc(C)cc(C)c3c2N)n[nH]c1=S,inconclusive: 106%
19,COc1ccc(S(=O)(=O)NC2CC2)cc1C(=O)N1CCOCC1,inconclusive: 64.3%
20,COC(=O)CCC(=O)OC1(C)C(=O)C=C2C=C(C3CC3)N(Cc3ccco3)C=C2C1=O (stereo not given),inconclusive: 111%
21,CC(C)N(c1ccccc1)c1ccc(NC(=O)C2CCCO2)cc1 (stereo not given),inactive: 98.7%

# A draw from above in order of molecular weight, high to low.
row,SMILES,binding response (% of control)
5,COc1ccc(NS(=O)(=O)c2cc(Cl)ccc2Cl)cc1S(=O)(=O)N1CCCCC1,inconclusive: 96.2%
23,CN(C)C(=O)NC(Nc1ccc(Cl)cc1Cl)C(Cl)(Cl)Cl (stereo not given),inactive: 66.8%
18,C=CCn1c(-c2sc3nc(C)cc(C)c3c2N)n[nH]c1=S,inconclusive: 106%

# Grouped by structure: those above with a CF3 group
row,SMILES,binding response (% of control)
21,FC(F)(F)c1cccc(OCC2CNC(=S)O2)c1 (stereo not given),inconclusive: 120%
2,COc1cc2c(cc1OC)C(NC(=O)C(F)(F)F)C/C2=N\O (stereo not given),inconclusive: 87.8%
17,O=C(CSc1cccc(C(F)(F)F)c1)N1CCN(S(=O)(=O)c2ccccc2)CC1,inactive: 89.9%
